Over roughly 33,000 sequences, “E-score (-0.5 to 0.5)” has its median near -0.015; the highest 2% begin near 0.3. Some of the results follow.
These sequences were tested against T1, Abf1 (UniProt P14164) (assay: PBM E-score (8-mer binding enrichment) (E-score (-0.5 to 0.5)); higher = stronger / more preferred TF binding). Conditions: protein concentration: 200 nM; construct: GST-full length.
T1 sequence: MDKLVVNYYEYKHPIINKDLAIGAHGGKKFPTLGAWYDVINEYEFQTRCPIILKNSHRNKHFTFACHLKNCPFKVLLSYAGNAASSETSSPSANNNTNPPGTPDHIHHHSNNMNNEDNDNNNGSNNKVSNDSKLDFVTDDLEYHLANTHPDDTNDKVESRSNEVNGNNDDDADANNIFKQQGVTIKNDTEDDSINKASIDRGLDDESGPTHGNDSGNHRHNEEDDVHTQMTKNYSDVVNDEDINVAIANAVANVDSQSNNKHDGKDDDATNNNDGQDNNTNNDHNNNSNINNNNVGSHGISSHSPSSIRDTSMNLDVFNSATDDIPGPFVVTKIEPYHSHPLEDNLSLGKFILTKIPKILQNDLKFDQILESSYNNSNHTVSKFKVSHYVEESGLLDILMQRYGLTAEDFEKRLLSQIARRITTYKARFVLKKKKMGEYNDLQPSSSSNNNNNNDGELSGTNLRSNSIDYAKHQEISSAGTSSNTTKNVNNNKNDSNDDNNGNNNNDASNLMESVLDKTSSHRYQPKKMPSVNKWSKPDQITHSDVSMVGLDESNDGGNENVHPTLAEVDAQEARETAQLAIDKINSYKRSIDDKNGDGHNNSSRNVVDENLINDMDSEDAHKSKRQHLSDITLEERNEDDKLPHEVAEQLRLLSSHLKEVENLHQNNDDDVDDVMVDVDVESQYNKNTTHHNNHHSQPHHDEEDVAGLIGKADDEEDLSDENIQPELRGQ
Procedure, shortened: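 GST-tagged yeast TFs (full-length or DNA-binding domain) were made by PURExpress in vitro transcription/translation and applied at about 100-200 nM to universal all-10-mer Agilent arrays. The arrays were made double-stranded by primer extension, on fresh or once-stripped slides. Bound protein was detected with fluorescent anti-GST, and scans were normalised with masliner. Each ungapped eight-base word, pooled with its reverse complement, received an E-score (modified Wilcoxon-Mann-Whitney statistic) from the Universal PBM Analysis Suite.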
With GGACCGAA the “PBM E-score” value was 0.064.
With ATCTAAGA the “PBM E-score” value was -0.0332.
ACGTAACA was tested, and the “PBM E-score” value was -0.0692.
With ATTACAGG the “PBM E-score” value was 0.0689.
ATGACAGA was tested, and the “PBM E-score” value was 0.128.
For AACTACGT, the “PBM E-score” value was -0.0112.
For GTTAGCCA, the “PBM E-score” value was -0.0295.
With ACATATAA the “PBM E-score” value was 0.204.
AGTTGGTC was tested, and the “PBM E-score” value was -0.0718.
ATTCGAAA was tested, and the “PBM E-score” value was 0.107.
GGATGCAC was tested, and the “PBM E-score” value was -0.2.
GCCGGCAC was tested, and the “PBM E-score” value was -0.0153.
In the case of GGGGCCAC, the “PBM E-score” value is reported as -0.357.
With GAGGGACC the “PBM E-score” value was -0.176.
In the case of CTTAAGTC, the “PBM E-score” value is reported as -0.0516.
In the case of CAAATCGC, the “PBM E-score” value is reported as -0.0589.
For CAACAGCG, the “PBM E-score” value was -0.243.
For AACGCCCT, the “PBM E-score” value was -0.0277.
With ACGCTCGG the “PBM E-score” value was -0.056.
CGGAGGAG was tested, and the “PBM E-score” value was -0.244.
For ATTATACA, the “PBM E-score” value was 0.0365.
CCGAACCG was tested, and the “PBM E-score” value was -0.0651.
AGCGACAT was tested, and the “PBM E-score” value was 0.289.
With AAAACGAT the “PBM E-score” value was 0.326.
For CAAGGAGA, the “PBM E-score” value was -0.216.
In the case of CGCGCATA, the “PBM E-score” value is reported as 0.118.
For AGGAACCG, the “PBM E-score” value was -0.0421.
CACGCGAC was tested, and the “PBM E-score” value was 0.032.
With GGACGGTA the “PBM E-score” value was 0.134.
In the case of AGGACGAT, the “PBM E-score” value is reported as 0.214.
GCCTGTCA was tested, and the “PBM E-score” value was -0.106.
CCTCTGGA was tested, and the “PBM E-score” value was -0.0278.
In the case of ACATAAGG, the “PBM E-score” value is reported as 0.0807.
With ATCGGAAT the “PBM E-score” value was 0.0728.
For ACACCCTA, the “PBM E-score” value was 0.102.
AAGCAACC was tested, and the “PBM E-score” value was -0.0212.
In the case of AGTTGAAG, the “PBM E-score” value is reported as -0.0636.
CCGCAGCC was tested, and the “PBM E-score” value was -0.137.
With CACATAAC the “PBM E-score” value was -0.0203.
CCGTTCGC was tested, and the “PBM E-score” value was 0.138.
For AACTGACG, the “PBM E-score” value was 0.0253.
In the case of AGAGCGCT, the “PBM E-score” value is reported as -0.0498.
With ATCCGACG the “PBM E-score” value was 0.155.
AACACATC was tested, and the “PBM E-score” value was 0.0803.
For GGTTACTA, the “PBM E-score” value was -0.112.
AAGCAATG was tested, and the “PBM E-score” value was 0.0852.
CCTTTAAA was tested, and the “PBM E-score” value was -0.302.
In the case of GCGACGAA, the “PBM E-score” value is reported as 0.313.
For ACGTAAAA, the “PBM E-score” value was 0.317.
For AAGAGATT, the “PBM E-score” value was -0.0636.
With TAAGGCTA the “PBM E-score” value was -0.0183.
ACCTTACA was tested, and the “PBM E-score” value was -0.0618.
For CCGCACGC, the “PBM E-score” value was -0.186.
For CCCTTGTC, the “PBM E-score” value was -0.103.
In the case of GGAGATAA, the “PBM E-score” value is reported as 0.0908.
With ATAGTGCC the “PBM E-score” value was -0.0726.
For CCCTCGCA, the “PBM E-score” value was -0.244.
GGTCAAAC was tested, and the “PBM E-score” value was -0.00041.
In the case of GCAACTGA, the “PBM E-score” value is reported as -0.019.
GTCGGAAC was tested, and the “PBM E-score” value was 0.0618.
For GCTCAGAA, the “PBM E-score” value was -0.184.
For ACACGCAG, the “PBM E-score” value was -0.105.
In the case of GGGATAAA, the “PBM E-score” value is reported as 0.118.
GCTCCTAA was tested, and the “PBM E-score” value was -0.21.
AGGATCCC was tested, and the “PBM E-score” value was -0.144.
With GCATCCGC the “PBM E-score” value was -0.0484.
In the case of ACGCCTGC, the “PBM E-score” value is reported as -0.0732.
In the case of ACTTTAAG, the “PBM E-score” value is reported as -0.00861.
In the case of CCTTTTGC, the “PBM E-score” value is reported as 0.00767.
With TATTAGGA the “PBM E-score” value was 0.14.
ATCGGCCC was tested, and the “PBM E-score” value was 0.0117.
AAACAGAA was tested, and the “PBM E-score” value was 0.023.
CCTCACTA was tested, and the “PBM E-score” value was 0.159.
CTTCCAGA was tested, and the “PBM E-score” value was -0.0365.
For CTCATACA, the “PBM E-score” value was -0.0831.
CGGCGTAA was tested, and the “PBM E-score” value was -0.0111.
AATTCCAA was tested, and the “PBM E-score” value was 0.116.
With GCATGTGA the “PBM E-score” value was 0.0113.
In the case of CGACAGCA, the “PBM E-score” value is reported as -0.128.
GTCGCATA was tested, and the “PBM E-score” value was 0.175.
For GACATGCA, the “PBM E-score” value was -0.11.
With ATGGGTCG the “PBM E-score” value was -0.109.
For ACCTGAGT, the “PBM E-score” value was -0.0532.
CGACCTTC was tested, and the “PBM E-score” value was 0.0167.
In the case of AGGCCTTC, the “PBM E-score” value is reported as -0.0303.
With ACTGGCAG the “PBM E-score” value was -0.165.

From the supplement of paper PMC3334620
